This is an account of results in PMC5996148.

Where “and” joins values, the source holds several entries; their conditions need not be identical. Equal values may be shown once. The list shows a part of the results.

Common to all, as to assay: protein microarray (ProtoArray v5.0), streptavidin-Alexa Fluor 647
Conditions in all cases: 3'-biotin; 20 mM Tris (pH 7.5), 5 mM MgCl2, 100 mM KCl, 0.1% Tween-20, A/T-rich and random oligonucleotide blockers; temperature not stated; high values mean tight binding

Experiment [1] deals with FXYD1 (human).
Experiment [2] deals with FXYD2 (human).
In experiment [3] the test system is FXYD5 (human).
Experiment [4] concerns FXYD7 (human).
The test system of experiment [5] is FYCO1 (human).
Experiment [6] has as its system FYVE, RhoGEF and PH domain-containing protein 2 (human).
In experiment [7] the test system is Ferritin heavy chain (human).
Experiment [8] relates to Fibroblast growth factor receptor 2 (human).
Experiment [9] deals with G1/S-specific cyclin-D1 (human).
Experiment [10] has as its system G6PC (human).
Experiment [11] concerns G6PD (human).
Experiment [12] deals with GA-binding protein subunit beta-1 (human).
Experiment [13] deals with GABPA (human).
The subject of experiment [14] is GABPB2 (human).
The test system of experiment [15] is GADD45G (human).
In experiment [16] the test system is GAL (human).
Experiment [17] deals with GALE (human).
In experiment [18] the test system is GALK1 (human).
Experiment [19] deals with GALNT12 (human).
For experiment [20], the system named is GAMT (human).

Turning to “GGGAGGCTGAGGCAGG [G4-1 biotinylated (PQS2)]”, the binding signal in experiment [1] was -0.331 z-score; in experiment [2] it was -0.318 z-score; in experiment [3] it was -0.329 z-score; in experiment [4], -0.334 z-score; in experiment [5], -0.339 z-score; in experiment [6] it was -0.358 z-score. For the same sequence, the binding signal in experiment [7] was -0.356 z-score; in experiment [8], -0.274 z-score and -0.31 z-score; in [9], -0.354 z-score; in experiment [10], -0.338 z-score; in experiment [11] it was -0.323 z-score; in experiment [12] it was -0.358 z-score. Besides, the binding signal in experiment [13] is -0.363 z-score; in experiment [14], -0.352 z-score and -0.358 z-score; in [15], -0.308 z-score; in [16], -0.275 z-score; in [17], -0.324 z-score; in [18], -0.319 z-score. In addition, the binding signal in [19] was -0.306 z-score; in [20] it was -0.334 z-score.
